Laboratory results from PMC11597407.
Results are given in words; binding and its absence hold for the method and conditions named. Some entries that bind do so weakly or less than the wild type.

Chains of the proteins cited; added tags and fusions are not shown. Lines headed by an entry give the natural chain unless they say otherwise; changes in a name come on top. Residues count along the entry.
UniProt P26039, residues 209-400: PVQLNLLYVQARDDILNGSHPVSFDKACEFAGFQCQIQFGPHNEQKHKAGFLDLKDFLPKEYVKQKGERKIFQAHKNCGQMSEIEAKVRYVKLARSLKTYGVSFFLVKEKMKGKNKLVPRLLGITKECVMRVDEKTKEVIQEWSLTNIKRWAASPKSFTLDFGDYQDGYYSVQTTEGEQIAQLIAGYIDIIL

Molecular target: talin (209-400), the talin1 F2F3 part of the APP-talin chimera (UniProt P26039)
Assay: crystal structure; APP(754-764)-talin(209-400) chimera, hanging drop, 0.1 M tris pH 8.5, 10% ethanol, 18 C; P212121, one copy in the asymmetric unit; the APP tail binds F3 of a symmetry-related molecule; both purified

B1: APP (754-764), the APP part of the APP-talin chimera (domain or fragment)
chain: QNGYENPTYKF
For B1, the binding was “binds”.
